Results are given in words; binding and its absence hold for the method and conditions named. In cells and extracts the contact can be indirect. These calls come from enrichment with a bait or labelling near it, and not all partners need be listed. Sequences can lack the tags named with a protein.
Target: FLAG/HA-double-tagged METTL8 (human) (UniProt Q9H825)
Test: affinity purification with mass spectrometry; large-scale (>10 L) purification of the FLAG/HA-METTL8 complex from 100 mg HeLaS3 nuclear extract by a scheme of chromatographic steps; FASP mass spectrometry (n = 3); controls: NHS column with IgG, METTL8 KO cells; complex resistant to RNase A

By UniProt entry, the sequences of proteins in these tests, tags left out.
UniProt P06748: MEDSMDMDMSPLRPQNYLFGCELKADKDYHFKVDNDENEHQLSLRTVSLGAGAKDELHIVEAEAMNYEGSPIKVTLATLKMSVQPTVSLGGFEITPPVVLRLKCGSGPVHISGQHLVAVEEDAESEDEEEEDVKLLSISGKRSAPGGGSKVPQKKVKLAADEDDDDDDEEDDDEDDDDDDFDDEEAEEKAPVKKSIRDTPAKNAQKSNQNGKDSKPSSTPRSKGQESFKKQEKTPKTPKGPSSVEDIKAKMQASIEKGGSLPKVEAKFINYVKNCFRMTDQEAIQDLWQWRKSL
UniProt P09874: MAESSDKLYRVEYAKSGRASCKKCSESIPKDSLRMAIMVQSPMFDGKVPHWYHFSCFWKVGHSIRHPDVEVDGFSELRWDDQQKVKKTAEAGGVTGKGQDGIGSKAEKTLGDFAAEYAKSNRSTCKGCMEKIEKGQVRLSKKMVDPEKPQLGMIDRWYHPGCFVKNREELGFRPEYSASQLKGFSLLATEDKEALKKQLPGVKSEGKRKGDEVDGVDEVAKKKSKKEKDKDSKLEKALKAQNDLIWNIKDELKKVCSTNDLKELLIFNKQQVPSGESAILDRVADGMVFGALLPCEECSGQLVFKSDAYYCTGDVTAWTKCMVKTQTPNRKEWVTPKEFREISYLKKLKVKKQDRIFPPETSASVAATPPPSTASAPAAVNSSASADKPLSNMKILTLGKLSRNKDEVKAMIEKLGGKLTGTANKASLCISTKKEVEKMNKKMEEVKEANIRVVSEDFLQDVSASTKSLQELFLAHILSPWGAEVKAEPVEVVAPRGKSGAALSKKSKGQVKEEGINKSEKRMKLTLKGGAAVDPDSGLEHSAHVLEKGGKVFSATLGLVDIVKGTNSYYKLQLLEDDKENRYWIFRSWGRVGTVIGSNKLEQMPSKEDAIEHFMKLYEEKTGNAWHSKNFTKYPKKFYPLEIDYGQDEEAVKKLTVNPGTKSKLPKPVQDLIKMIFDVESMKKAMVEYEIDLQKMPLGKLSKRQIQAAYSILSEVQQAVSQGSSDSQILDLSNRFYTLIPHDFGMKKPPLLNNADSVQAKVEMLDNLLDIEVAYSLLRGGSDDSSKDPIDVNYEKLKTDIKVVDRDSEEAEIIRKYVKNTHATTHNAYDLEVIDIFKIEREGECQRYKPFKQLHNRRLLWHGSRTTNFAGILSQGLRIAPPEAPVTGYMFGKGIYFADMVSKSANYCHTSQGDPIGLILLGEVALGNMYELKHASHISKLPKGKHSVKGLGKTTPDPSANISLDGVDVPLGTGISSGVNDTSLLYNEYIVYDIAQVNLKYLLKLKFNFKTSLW
UniProt P78527: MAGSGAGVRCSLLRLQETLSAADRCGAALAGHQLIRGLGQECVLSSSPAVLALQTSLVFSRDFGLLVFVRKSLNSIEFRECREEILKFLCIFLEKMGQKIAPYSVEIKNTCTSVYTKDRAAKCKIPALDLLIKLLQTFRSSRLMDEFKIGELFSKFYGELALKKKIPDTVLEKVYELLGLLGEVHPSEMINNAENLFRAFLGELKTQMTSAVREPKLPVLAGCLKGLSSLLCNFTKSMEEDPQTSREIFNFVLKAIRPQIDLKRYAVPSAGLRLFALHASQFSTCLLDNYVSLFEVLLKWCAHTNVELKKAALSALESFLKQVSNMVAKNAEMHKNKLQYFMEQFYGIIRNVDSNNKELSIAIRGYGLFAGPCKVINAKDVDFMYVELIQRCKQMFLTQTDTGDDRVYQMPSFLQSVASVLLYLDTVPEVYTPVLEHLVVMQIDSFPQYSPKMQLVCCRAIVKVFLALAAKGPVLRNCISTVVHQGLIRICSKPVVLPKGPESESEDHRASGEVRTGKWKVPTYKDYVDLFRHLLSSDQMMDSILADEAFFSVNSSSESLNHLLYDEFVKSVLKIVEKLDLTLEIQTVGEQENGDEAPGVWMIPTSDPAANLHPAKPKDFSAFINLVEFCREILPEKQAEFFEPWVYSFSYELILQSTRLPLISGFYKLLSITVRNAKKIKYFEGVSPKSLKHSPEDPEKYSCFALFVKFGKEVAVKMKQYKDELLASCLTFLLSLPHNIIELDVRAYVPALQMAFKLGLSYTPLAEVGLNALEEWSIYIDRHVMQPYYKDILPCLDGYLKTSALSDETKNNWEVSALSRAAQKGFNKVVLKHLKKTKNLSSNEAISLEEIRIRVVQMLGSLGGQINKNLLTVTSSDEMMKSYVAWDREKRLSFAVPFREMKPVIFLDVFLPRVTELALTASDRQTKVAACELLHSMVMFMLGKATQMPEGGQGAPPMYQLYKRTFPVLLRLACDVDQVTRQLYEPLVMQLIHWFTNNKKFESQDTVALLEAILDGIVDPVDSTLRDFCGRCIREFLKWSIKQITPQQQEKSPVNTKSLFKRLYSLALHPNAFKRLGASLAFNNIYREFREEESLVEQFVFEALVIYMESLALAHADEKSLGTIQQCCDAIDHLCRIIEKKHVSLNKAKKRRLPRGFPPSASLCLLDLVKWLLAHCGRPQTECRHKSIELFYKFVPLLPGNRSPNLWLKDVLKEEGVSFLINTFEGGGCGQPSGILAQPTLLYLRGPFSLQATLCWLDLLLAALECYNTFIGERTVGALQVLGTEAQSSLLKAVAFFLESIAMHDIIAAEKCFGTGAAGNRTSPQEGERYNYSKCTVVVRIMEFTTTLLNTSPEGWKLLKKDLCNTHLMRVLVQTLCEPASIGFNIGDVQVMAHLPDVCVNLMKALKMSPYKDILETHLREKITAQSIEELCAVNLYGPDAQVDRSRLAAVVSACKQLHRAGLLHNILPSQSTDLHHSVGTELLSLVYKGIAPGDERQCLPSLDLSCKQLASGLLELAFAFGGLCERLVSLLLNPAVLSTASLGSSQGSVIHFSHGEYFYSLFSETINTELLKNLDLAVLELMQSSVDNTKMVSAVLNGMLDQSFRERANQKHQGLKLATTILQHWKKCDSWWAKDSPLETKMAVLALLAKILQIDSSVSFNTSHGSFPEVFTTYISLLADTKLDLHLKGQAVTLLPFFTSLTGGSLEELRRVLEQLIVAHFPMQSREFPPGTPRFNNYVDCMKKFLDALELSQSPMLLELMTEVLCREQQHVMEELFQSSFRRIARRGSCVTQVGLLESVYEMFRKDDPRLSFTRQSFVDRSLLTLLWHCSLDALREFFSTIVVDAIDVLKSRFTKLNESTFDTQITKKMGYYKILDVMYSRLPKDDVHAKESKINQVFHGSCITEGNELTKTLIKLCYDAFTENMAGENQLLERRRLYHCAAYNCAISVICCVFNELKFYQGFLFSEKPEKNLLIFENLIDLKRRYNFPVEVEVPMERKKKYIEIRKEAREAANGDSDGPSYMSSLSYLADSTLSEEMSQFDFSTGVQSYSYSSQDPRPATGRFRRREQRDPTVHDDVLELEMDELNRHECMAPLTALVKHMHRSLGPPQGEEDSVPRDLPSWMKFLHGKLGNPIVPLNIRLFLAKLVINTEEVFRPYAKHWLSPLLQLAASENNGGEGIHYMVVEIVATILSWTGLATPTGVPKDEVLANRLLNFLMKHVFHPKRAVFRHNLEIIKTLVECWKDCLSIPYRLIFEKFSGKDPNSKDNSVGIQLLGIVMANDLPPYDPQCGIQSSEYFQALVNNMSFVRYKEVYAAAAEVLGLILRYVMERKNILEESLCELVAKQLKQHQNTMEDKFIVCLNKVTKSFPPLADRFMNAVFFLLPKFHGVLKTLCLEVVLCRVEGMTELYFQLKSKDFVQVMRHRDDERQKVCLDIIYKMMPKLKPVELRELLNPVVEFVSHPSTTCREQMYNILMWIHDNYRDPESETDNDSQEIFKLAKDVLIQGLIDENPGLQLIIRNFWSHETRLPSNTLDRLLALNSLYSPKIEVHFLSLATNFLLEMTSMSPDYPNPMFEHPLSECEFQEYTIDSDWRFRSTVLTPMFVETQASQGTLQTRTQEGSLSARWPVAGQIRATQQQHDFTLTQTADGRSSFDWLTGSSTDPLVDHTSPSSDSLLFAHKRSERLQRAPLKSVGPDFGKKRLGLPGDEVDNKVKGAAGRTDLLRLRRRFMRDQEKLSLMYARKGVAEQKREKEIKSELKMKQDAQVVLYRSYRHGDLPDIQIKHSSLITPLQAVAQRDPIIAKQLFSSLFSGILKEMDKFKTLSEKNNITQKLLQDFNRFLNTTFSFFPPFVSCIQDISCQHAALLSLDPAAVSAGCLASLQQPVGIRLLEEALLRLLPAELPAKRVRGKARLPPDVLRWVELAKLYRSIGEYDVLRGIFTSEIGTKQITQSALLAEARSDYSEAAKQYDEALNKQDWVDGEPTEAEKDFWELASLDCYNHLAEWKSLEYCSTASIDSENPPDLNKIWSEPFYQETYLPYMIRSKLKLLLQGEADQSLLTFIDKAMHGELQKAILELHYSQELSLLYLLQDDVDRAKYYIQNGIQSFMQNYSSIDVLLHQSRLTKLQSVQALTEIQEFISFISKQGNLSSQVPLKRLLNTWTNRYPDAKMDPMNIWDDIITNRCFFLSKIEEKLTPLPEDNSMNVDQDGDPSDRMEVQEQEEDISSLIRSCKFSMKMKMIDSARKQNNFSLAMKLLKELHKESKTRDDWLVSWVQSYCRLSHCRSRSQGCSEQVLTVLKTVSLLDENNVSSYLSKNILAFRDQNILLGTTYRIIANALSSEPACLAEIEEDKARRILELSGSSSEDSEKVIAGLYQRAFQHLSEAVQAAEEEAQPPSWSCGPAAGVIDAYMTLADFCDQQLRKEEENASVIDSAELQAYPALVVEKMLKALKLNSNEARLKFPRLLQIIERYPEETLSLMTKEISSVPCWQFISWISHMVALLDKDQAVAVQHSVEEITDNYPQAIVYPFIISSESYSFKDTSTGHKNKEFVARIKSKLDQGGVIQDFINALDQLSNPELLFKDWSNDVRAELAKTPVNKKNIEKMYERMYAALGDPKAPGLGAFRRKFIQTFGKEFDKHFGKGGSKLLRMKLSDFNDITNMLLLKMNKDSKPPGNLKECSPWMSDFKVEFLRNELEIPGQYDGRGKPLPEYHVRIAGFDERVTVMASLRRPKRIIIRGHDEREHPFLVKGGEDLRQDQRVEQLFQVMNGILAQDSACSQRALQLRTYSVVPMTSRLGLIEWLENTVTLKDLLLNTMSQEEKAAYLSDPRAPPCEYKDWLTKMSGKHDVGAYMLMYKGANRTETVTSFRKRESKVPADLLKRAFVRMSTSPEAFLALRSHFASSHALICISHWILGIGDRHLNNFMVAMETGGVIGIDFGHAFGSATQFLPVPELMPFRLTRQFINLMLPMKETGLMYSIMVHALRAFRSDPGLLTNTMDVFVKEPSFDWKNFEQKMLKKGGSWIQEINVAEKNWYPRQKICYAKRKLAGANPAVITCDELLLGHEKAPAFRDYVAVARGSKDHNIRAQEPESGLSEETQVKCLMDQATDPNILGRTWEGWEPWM

binding	Substance
binds	NPM1 (from UniProt P06748 1-294)
binds	PARP1 (from UniProt P09874 1-1014) (enzyme)
binds	PRKDC (from UniProt P78527 1-4128) (enzyme)
